We go through 2 molecules from paper PMC5829068.

Amino acid sequences for entries named in this document (tags omitted). Residues count along the entry.
UniProt Q13546: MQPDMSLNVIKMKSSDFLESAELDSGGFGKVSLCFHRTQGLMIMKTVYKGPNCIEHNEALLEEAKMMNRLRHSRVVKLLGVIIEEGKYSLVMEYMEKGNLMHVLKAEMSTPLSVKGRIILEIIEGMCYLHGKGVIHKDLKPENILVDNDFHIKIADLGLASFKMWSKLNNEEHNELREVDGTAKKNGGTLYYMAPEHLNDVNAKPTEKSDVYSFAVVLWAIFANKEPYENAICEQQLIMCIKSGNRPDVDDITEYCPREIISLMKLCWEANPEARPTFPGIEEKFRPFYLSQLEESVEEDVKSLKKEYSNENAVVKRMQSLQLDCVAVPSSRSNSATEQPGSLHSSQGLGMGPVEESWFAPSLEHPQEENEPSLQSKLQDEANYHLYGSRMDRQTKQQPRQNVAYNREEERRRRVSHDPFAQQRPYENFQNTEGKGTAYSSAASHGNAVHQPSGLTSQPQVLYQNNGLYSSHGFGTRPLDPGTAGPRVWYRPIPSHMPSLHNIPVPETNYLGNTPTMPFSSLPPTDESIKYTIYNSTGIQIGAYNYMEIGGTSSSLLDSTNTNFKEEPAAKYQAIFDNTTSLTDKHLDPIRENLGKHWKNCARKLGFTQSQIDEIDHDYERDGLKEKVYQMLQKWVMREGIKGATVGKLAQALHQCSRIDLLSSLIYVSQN
UniProt P02748, residues 22-559: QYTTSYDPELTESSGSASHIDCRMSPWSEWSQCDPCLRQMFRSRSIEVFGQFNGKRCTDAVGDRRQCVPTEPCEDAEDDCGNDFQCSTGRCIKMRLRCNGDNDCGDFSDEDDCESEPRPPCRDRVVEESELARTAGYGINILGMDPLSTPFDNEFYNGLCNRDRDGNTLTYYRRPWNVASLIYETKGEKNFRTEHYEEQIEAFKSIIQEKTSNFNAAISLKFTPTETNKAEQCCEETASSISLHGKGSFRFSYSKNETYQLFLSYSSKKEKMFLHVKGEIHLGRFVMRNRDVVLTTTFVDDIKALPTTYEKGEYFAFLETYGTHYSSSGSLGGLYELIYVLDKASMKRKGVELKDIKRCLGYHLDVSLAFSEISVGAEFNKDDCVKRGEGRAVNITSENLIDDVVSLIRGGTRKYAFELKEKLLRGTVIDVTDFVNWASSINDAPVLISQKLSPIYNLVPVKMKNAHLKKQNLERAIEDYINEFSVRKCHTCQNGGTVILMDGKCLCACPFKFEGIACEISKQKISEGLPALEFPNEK
UniProt Q9Y572: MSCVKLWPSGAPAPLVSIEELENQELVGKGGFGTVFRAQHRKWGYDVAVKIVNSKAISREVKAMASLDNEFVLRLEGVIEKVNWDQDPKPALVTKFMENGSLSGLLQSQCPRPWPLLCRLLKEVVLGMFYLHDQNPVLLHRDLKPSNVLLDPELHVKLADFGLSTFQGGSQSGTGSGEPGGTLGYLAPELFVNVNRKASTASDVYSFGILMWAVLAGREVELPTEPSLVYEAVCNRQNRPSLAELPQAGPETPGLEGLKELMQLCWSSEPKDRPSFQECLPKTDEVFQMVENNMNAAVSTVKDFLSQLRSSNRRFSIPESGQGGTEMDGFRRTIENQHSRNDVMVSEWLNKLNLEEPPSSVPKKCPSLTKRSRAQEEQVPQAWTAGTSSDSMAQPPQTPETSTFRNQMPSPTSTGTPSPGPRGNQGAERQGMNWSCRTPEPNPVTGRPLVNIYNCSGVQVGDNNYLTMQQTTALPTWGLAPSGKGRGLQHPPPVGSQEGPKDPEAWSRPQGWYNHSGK

Assay [1] deals with receptor-interacting protein kinase 1 (RIPK1) (human (endogenous in K562)) (UniProt Q13546). The experiment in a line: condition: only cells treated with HIS or untreated (no active complement); FRET or BRET; as a3, but cells treated with HIS or untreated control cells. In general terms: In BRET a luciferase serves as donor, and the signal depends on an acceptor being close.
Assay [2] shares this target. The experiment in a line: co-IP; anti-RIPK1 antibody on Protein-A/G agarose beads, 1 h at 4°C; lysates (0.2% NP-40, 20 mM Tris-HCl pH 7.5, 150 mM NaCl, 1 mM EDTA, 10% glycerol) of Flag-RIPK3 K562 cells treated with a sublytic dose of antibody and complement (NHS) for 1-10 min at 37°C; Western blot with anti-Flag. (A western blot detects proteins with antibodies after separation by electrophoresis.)

Assay [3] addresses complement C9 (human) (UniProt P02748). The experiment in a line: co-IP; anti-C9 antibody on Protein-A/G agarose beads; lysates (100 mM Tris pH 7.5, 0.77% Triton X-100, 10 mM EDTA) of K562 cells treated for 10 min with sublytic antibody and complement (NHS); Western blot with anti-C9 and anti-MLKL.

Results are given in words; binding and its absence hold for the method and conditions named. Binding seen in cells or lysates may run through a third protein. Some binding calls cover weakened binding; strength is not graded here.

Regarding “Flag-tagged receptor-interacting protein kinase 3 (Flag-RIPK3) (from UniProt Q9Y572 1-518)”, the binding entry is listed as “no binding” in assay [1] and “binds” in assay [2].

B1: mixed lineage kinase domain-like protein (MLKL) (protein, UniProt Q8NB16 1-471)
chain: MENLKHIITLGQVIHKRCEEMKYCKKQCRRLGHRVLGLIKPLEMLQDQGKRSVPSEKLTTAMNRFKAALEEANGEIEKFSNRSNICRFLTASQDKILFKDVNRKLSDVWKELSLLLQVEQRMPVSPISQGASWAQEDQQDADEDRRAFQMLRRDNEKIEASLRRLEINMKEIKETLRQYLPPKCMQEIPQEQIKEIKKEQLSGSPWILLRENEVSTLYKGEYHRAPVAIKVFKKLQAGSIAIVRQTFNKEIKTMKKFESPNILRIFGICIDETVTPPQFSIVMEYCELGTLRELLDREKDLTLGKRMVLVLGAARGLYRLHHSEAPELHGKIRSSNFLVTQGYQVKLAGFELRKTQTSMSLGTTREKTDRVKSTAYLSPQELEDVFYQYDVKSEIYSFGIVLWEIATGDIPFQGCNSEKIRKLVAVKRQQEPLGEDCPSELREIIDECRAHDPSVRPSVDEILKKLSTFSK
Turning to B1, the binding result in assay [3] is on record as “binds”.
